Reference: patent US9867795B2, “Nitrated lipids and methods of making and using thereof” (The UAB Research Foundation, priority 2004, dated 2018)
Some results were stated once for a whole list of compounds, not compound by compound.

System: 3T3-L1 preadipocytes
Settings: two weeks; oil red O; LNO2 3 μM, OA-NO2 1 μM

With “9- and 10-nitro-9-cis-octadecenoic acid [OA-NO2]” the “3T3-L1 preadipocyte differentiation induced” value was over 30%.
